{"source": "PubChem BioAssay AID2685", "about": "(National Center for Advancing Translational Sciences (NCATS), 2010)", "assay": "qHTS Assay for Lipid Storage Modulators in Drosophila S3 Cells;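 on cell number change: cells counted by Cell Tracker Red CMTPX staining in the red channel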", "settings": "BODIPY lipid droplet fluorescence, 18-24 h; for cell number change: measured here: cell count max response, cells fed with added oleic acid", "summary_of_the_method": "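Laser-scanning cytometry quantifies lipid droplet accumulation (500–530 nm total intensity; droplet/cell object ratio) in oleic acid-fed (400 uM added) Drosophila S3 cells treated with a concentration series. 20 uM Triacsin C defined 100% inhibition.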", "key": {"[1]": {"settings": "measured here: lipid fluorescence (Fed channel) AC50, cells fed with added oleic acid"}, "[2]": {"settings": "measured here: cell number channel AC50, cells fed with added oleic acid"}}, "note": "The list shows a part of the results. Further columns of the screen follow, without active or inactive calls. The list favours compounds with an active or inconclusive main result. Potencies come from curve fits of mixed quality, noted in brackets.", "data": [{"smiles": "CCN1CCN(S(=O)(=O)c2ccc(Cl)c(C(=O)Nc3cc(Cl)ccc3N3CCOCC3)c2)CC1", "values": [{"measurement": "AC50", "setting": "[1]", "result": "29.1 µM [falling, single point]"}]}, {"smiles": "Cn1cc(C(=O)N2CCCCC2)c(=O)c2cc(S(=O)(=O)N3CCCC3)ccc21", "values": [{"measurement": "cell number change", "result": 38.9, "unit": "%"}, {"measurement": "AC50", "setting": "[2]", "result": "23.1 µM [rising, single point]"}, {"measurement": "AC50", "setting": "[1]", "result": "5.8 µM [falling, single point]"}]}, {"smiles": "COc1ccc(C2CC3(CC(C)(C)NC(SC)=N3)Oc3cc(O)cc(C)c32)cc1", "note": "(stereo unspecified)", "values": [{"measurement": "AC50", "setting": "[1]", "result": "29.1 µM [falling, single point]"}]}, {"smiles": "CCSCCNC(=O)c1cncc(Br)c1", "values": [{"measurement": "cell number change", "result": 2.18, "unit": "%"}]}, {"smiles": "Cc1cc(NN)nc(NS(=O)(=O)c2ccccc2Cl)n1", "values": [{"measurement": "cell number change", "result": 12.3, "unit": "%"}, {"measurement": "AC50", "setting": "[1]", "result": "0.116 µM [rising, full curve, poor fit]"}]}, {"smiles": "CCOC(=O)CC1C(=O)NCCN1C(=O)c1cccc(OC)c1", "note": "(stereo unspecified)", "values": [{"measurement": "AC50", "setting": "[1]", "result": "18.4 µM [rising, partial curve, poor fit]"}]}, {"smiles": "COc1cc(C(=O)Nc2c(C(=O)O)[nH]c3ccc(C)cc23)cc(OC)c1OC", "values": [{"measurement": "cell number change", "result": 9.93, "unit": "%"}]}, {"smiles": "COC(=O)C(NC(=O)c1ccco1)(Nc1nc(C)cs1)C(F)(F)F", "note": "(stereo unspecified)", "values": [{"measurement": "cell number change", "result": -3.7, "unit": "%"}, {"measurement": "AC50", "setting": "[1]", "result": "6.51 µM [rising, single point]"}]}, {"smiles": "O=C(Cn1cnc2c(cnn2-c2ccccc2)c1=O)NC1CCCC1", "values": [{"measurement": "cell number change", "result": 57.8, "unit": "%"}, {"measurement": "AC50", "setting": "[2]", "result": "13 µM [rising, partial curve]"}, {"measurement": "AC50", "setting": "[1]", "result": "6.51 µM [rising, single point]"}]}, {"smiles": "Cc1ccc(S(=O)(=O)N2CCN(C(=O)CN3C(=O)c4ccc([N+](=O)[O-])cc4C3=O)CC2)cc1C", "values": [{"measurement": "cell number change", "result": 4.15, "unit": "%"}, {"measurement": "AC50", "setting": "[1]", "result": "0.0731 µM [rising, partial curve, poor fit]"}]}, {"smiles": "C=CCc1cc(C)ccc1OCCOCCC(C(=O)OCC)C(=O)OCC", "values": [{"measurement": "cell number change", "result": 7.24, "unit": "%"}, {"measurement": "AC50", "setting": "[1]", "result": "20.6 µM [rising, single point]"}]}, {"smiles": "Cc1cc(=O)[nH]c(Nc2ccc(N(C)C)cc2)n1", "values": [{"measurement": "cell number change", "result": 1.05, "unit": "%"}, {"measurement": "AC50", "setting": "[2]", "result": "0.00461 µM [rising, full curve, poor fit]"}, {"measurement": "AC50", "setting": "[1]", "result": "29.1 µM [rising, single point]"}]}, {"smiles": "CCn1c(SCC(=O)c2cc(C)ccc2C)nc2cc(S(=O)(=O)N3CCOCC3)ccc21", "values": [{"measurement": "cell number change", "result": 83.3, "unit": "%"}, {"measurement": "AC50", "setting": "[2]", "result": "6.51 µM [falling, partial curve, poor fit]"}]}, {"smiles": "Cc1cc(NC(=O)c2cc3ncc(Br)cn3n2)no1", "values": [{"measurement": "cell number change", "result": -6.27, "unit": "%"}, {"measurement": "AC50", "setting": "[1]", "result": "0.651 µM [falling, single point]"}]}, {"smiles": "CC1(C)CC(=O)CC2(C1)NCC(c1ccccc1Cl)c1c2[nH]c2ccccc12", "note": "(stereo unspecified)", "values": [{"measurement": "cell number change", "result": -1.36, "unit": "%"}]}, {"smiles": "Cc1c(Cc2ccccc2)c(=O)oc2cc(O)cc(O)c12", "values": [{"measurement": "cell number change", "result": 33.5, "unit": "%"}, {"measurement": "AC50", "setting": "[2]", "result": "32.6 µM [rising, single point]"}, {"measurement": "AC50", "setting": "[1]", "result": "29.1 µM [rising, single point]"}]}, {"smiles": "Cc1ccnc(NC(=O)CCC(=O)N(CC(=O)NCCc2ccccc2)c2ccc(F)cc2)c1", "values": [{"measurement": "cell number change", "result": 1.74, "unit": "%"}, {"measurement": "AC50", "setting": "[1]", "result": "0.366 µM [rising, partial curve, poor fit]"}]}, {"smiles": "CCn1cc(C(=O)N(CCC(C)C)c2c(N)n(Cc3ccccc3)c(=O)[nH]c2=O)c(=O)c2ccc(C)nc21", "values": [{"measurement": "cell number change", "result": -26.3, "unit": "%"}, {"measurement": "AC50", "setting": "[1]", "result": "32.6 µM [falling, single point]"}]}, {"smiles": "O=C1NC(=O)c2cc(NC(=O)C3CCCO3)ccc21", "note": "(stereo unspecified)", "values": [{"measurement": "cell number change", "result": -0.831, "unit": "%"}, {"measurement": "AC50", "setting": "[1]", "result": "0.58 µM [rising, full curve]"}]}, {"smiles": "COC(=O)CSc1nnc(-c2ccccc2OC)n1-c1ccc(C)cc1", "values": [{"measurement": "cell number change", "result": 32.6, "unit": "%"}, {"measurement": "AC50", "setting": "[2]", "result": "7.31 µM [rising, full curve, poor fit]"}, {"measurement": "AC50", "setting": "[1]", "result": "7.31 µM [rising, partial curve]"}]}, {"smiles": "CCc1cc(=O)oc2c(C)c(OCC(=O)NCc3ccccn3)ccc12", "values": [{"measurement": "cell number change", "result": -15.3, "unit": "%"}, {"measurement": "AC50", "setting": "[2]", "result": "2.59 µM [falling, partial curve, poor fit]"}, {"measurement": "AC50", "setting": "[1]", "result": "6.51 µM [falling, single point]"}]}, {"smiles": "O=C(COc1ccc(F)c(Cl)c1)N1CCN(c2ccccn2)CC1", "values": [{"measurement": "cell number change", "result": 8.79, "unit": "%"}, {"measurement": "AC50", "setting": "[1]", "result": "0.92 µM [rising, full curve, poor fit]"}]}, {"smiles": "N#Cc1ncc(C(F)(F)F)cc1Sc1ccc(N)cc1", "values": [{"measurement": "cell number change", "result": 95, "unit": "%"}, {"measurement": "AC50", "setting": "[2]", "result": "4.61 µM [rising, partial curve]"}, {"measurement": "AC50", "setting": "[1]", "result": "0.103 µM [rising, full curve, poor fit]"}]}, {"smiles": "Cc1ccc2c(c1)[C@@H]1CN(C)CC[C@@H]1N2S(=O)(=O)c1ccc(F)cc1", "values": [{"measurement": "cell number change", "result": -18.6, "unit": "%"}]}, {"smiles": "CCOC(=O)c1c(N2C(=O)C=CC2=O)sc(C)c1C", "values": [{"measurement": "cell number change", "result": -73.6, "unit": "%"}, {"measurement": "AC50", "setting": "[1]", "result": "0.00461 µM [falling, full curve, poor fit]"}]}, {"smiles": "N/C(=N\\OC(=O)C1CCCCC1)c1cccc([N+](=O)[O-])c1", "values": [{"measurement": "cell number change", "result": -1.6, "unit": "%"}, {"measurement": "AC50", "setting": "[1]", "result": "18.4 µM [rising, single point]"}]}, {"smiles": "C[C@H](NC(=O)c1ccccc1Cl)C(=O)OCC(=O)N1CCN(c2ccccc2)CC1", "values": [{"measurement": "cell number change", "result": 8.51, "unit": "%"}, {"measurement": "AC50", "setting": "[1]", "result": "0.146 µM [rising, full curve, poor fit]"}]}, {"smiles": "COCC(C)n1c(C)cc(C(=O)CSc2nnc(Nc3ccccc3F)s2)c1C", "note": "(stereo unspecified)", "values": [{"measurement": "cell number change", "result": -8.58, "unit": "%"}]}, {"smiles": "CC(=O)Nc1ccc(S(=O)(=O)NCCC(=O)OC(C)C(=O)NC2(C#N)CCCCC2)cc1", "note": "(stereo unspecified)", "values": [{"measurement": "AC50", "setting": "[1]", "result": "16.4 µM [rising, single point]"}]}, {"smiles": "O=C1C(C2=NC(c3ccccn3)C3C(=O)N(c4ccc(Cl)cc4Cl)C(=O)C23)=C(O)c2ccccc21", "note": "(stereo unspecified)", "values": [{"measurement": "cell number change", "result": -31.1, "unit": "%"}, {"measurement": "AC50", "setting": "[2]", "result": "5.8 µM [falling, full curve, poor fit]"}]}, {"smiles": "Cc1cccc(C(C)C)c1NC(=O)C(C)OC(=O)Cc1n[nH]c(=O)c2ccccc12", "note": "(stereo unspecified)", "values": [{"measurement": "cell number change", "result": 34.4, "unit": "%"}, {"measurement": "AC50", "setting": "[2]", "result": "29.1 µM [rising, single point]"}, {"measurement": "AC50", "setting": "[1]", "result": "29.1 µM [rising, single point]"}]}, {"smiles": "CCN1CCN(C(=O)CCc2nnc(CCc3ccccc3OC)o2)[C@@H](C)C1=O", "values": [{"measurement": "cell number change", "result": -5.34, "unit": "%"}, {"measurement": "AC50", "setting": "[2]", "result": "6.51 µM [rising, single point]"}]}, {"smiles": "COc1ccc(O)c(C(=O)c2cnc3c(c2)c(=O)[nH]c(=O)n3C)c1", "values": [{"measurement": "cell number change", "result": 19, "unit": "%"}]}, {"smiles": "CCOC(=O)c1cc(C)[nH]c1C", "values": [{"measurement": "cell number change", "result": 22.6, "unit": "%"}, {"measurement": "AC50", "setting": "[1]", "result": "20.6 µM [rising, single point]"}]}, {"smiles": "O=C(O)c1ccccc1S(=O)(=O)c1ccccc1CO", "values": [{"measurement": "cell number change", "result": -13.4, "unit": "%"}, {"measurement": "AC50", "setting": "[1]", "result": "0.00461 µM [falling, full curve, poor fit]"}]}, {"smiles": "CC(=O)NC1C(=O)N=C(SCc2ccccc2)NC1=O", "note": "(stereo unspecified)", "values": [{"measurement": "cell number change", "result": -8.83, "unit": "%"}, {"measurement": "AC50", "setting": "[1]", "result": "18.4 µM [falling, partial curve]"}]}, {"smiles": "O=C(/C=C/c1ccc(F)cc1)N1CCN(S(=O)(=O)/C=C/c2ccccc2)CC1", "values": [{"measurement": "cell number change", "result": 3.69, "unit": "%"}]}]}
